Results are given in words; binding and its absence hold for the method and conditions named. In cells and extracts the contact can be indirect. Some binding calls cover weakened binding; strength is not graded here.
Experiments:
[1] = target: endogenous Runx2 in MC3T3-E1 osteoblastic cells (UniProt Q08775); assay: co-immunoprecipitation, with or without TGFβ
[2] = target: endogenous Runx2 in MC3T3-E1 osteoblastic cells (UniProt Q08775); assay: co-immunoprecipitation of endogenous proteins, anti-Runx2 IP, anti-Shn3 blot
[3] = target: endogenous Runx2 in MC3T3-E1 osteoblastic cells (UniProt Q08775); assay: co-immunoprecipitation of endogenous proteins in differentiated MC3T3-E1 cells, with or without TGF-β

By UniProt entry, the sequences of proteins in these tests, tags left out.
UniProt Q08775: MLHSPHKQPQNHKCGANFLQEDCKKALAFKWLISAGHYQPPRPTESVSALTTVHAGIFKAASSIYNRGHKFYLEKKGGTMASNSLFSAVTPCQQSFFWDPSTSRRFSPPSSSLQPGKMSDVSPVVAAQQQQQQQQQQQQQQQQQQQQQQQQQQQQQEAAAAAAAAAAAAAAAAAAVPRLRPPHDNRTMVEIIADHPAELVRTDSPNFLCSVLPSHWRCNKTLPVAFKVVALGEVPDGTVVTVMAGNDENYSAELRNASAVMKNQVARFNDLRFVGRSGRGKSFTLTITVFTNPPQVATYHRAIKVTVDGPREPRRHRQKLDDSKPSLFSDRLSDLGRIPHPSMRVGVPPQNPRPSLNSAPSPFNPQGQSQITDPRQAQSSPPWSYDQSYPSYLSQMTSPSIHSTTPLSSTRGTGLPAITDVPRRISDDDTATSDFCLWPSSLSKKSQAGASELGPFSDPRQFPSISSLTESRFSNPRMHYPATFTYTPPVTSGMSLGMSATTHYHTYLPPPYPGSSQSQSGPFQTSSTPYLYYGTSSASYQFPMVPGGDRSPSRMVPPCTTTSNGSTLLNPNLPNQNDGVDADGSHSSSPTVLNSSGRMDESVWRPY
UniProt A2A884: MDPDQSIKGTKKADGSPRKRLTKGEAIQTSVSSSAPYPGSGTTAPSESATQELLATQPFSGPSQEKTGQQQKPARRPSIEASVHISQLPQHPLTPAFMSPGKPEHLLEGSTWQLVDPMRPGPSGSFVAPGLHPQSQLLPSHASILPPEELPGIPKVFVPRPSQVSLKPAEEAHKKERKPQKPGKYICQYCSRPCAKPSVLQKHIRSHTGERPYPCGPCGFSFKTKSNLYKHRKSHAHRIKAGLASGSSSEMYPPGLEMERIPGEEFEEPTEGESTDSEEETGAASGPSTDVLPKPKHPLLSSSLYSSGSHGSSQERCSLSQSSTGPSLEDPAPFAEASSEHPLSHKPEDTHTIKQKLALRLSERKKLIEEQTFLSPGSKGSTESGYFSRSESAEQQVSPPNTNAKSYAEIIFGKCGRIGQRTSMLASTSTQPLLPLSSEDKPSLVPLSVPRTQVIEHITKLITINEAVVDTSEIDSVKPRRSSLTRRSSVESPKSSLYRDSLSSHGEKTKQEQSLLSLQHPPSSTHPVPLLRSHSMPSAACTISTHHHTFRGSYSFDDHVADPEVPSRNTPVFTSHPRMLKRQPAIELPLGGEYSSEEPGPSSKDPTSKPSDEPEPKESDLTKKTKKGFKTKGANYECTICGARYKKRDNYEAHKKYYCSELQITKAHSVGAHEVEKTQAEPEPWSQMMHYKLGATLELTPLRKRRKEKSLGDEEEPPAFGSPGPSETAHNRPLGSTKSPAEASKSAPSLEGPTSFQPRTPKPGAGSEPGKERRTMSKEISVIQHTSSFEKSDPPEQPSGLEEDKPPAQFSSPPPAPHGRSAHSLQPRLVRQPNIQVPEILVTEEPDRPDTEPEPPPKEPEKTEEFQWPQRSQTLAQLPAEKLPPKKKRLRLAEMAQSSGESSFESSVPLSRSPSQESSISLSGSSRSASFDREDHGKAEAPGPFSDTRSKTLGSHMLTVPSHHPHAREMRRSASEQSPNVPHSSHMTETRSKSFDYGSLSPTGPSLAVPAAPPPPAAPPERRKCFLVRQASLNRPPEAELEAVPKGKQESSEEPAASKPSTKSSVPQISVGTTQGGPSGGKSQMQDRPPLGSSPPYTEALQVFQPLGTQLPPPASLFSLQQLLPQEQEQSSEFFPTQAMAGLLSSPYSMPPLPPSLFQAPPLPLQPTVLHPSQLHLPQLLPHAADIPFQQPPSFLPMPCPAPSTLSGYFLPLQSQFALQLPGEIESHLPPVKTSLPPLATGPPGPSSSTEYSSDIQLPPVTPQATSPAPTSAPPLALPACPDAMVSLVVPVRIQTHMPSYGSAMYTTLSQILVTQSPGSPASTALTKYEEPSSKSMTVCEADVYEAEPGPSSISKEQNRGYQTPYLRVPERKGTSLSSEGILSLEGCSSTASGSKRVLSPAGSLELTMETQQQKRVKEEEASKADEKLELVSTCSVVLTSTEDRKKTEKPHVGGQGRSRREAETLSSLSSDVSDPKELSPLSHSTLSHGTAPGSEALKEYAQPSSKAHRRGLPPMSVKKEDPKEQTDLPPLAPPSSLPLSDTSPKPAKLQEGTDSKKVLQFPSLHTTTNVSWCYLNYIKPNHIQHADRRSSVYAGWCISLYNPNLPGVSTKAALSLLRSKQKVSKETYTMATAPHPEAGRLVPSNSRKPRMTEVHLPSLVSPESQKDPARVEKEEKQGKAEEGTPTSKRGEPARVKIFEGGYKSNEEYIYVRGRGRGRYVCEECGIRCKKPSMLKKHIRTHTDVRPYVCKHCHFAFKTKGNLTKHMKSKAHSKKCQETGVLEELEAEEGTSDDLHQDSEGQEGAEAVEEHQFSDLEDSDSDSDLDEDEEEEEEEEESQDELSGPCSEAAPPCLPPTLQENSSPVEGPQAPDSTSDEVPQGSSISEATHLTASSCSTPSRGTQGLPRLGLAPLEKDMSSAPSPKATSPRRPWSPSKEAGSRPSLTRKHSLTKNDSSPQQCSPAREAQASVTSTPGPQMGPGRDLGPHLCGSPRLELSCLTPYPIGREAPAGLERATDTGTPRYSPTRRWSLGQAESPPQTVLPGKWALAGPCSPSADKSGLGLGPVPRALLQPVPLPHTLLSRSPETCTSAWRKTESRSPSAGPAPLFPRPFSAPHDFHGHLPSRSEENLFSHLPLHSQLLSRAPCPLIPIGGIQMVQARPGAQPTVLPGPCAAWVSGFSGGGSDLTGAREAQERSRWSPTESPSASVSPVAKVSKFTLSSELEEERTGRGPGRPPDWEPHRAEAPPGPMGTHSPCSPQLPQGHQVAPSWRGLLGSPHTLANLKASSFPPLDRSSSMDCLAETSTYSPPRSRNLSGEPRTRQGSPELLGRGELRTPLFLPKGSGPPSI

Measured: binding

endogenous Shn3 in MC3T3-E1 osteoblastic cells (from UniProt A2A884 1-2348)
binds: all assays above

— patent publication US20090318338A1
